{"source": "PubChem BioAssay AID1259415", "about": "(National Center for Advancing Translational Sciences (NCATS), 2018)", "note": "About 18,000 (4.4%) of roughly 410,000 compounds were called active. The inconclusive results got no clear call from the source; some entries with a clear call stand among them for comparison. Rule as the data show it: active = activity change below about -60%; inconclusive = no clear call, values can overlap the other calls; inactive = above about -39%. % is scaled to controls: 0 for no effect and ±100 for the full control effect."}
{"assay": "qHTS Assay for inhibitors of the human cytomegalovirus (HCMV)", "settings": "HFF cells, HCMV-luciferase reporter, 72 h; at 57.5 µM; stronger effect = lower value", "method_in_brief": "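Cell-based, HFFs, 1000 cells/well, 16 h 37C; cpds in DMSO + HCMV-luc, MOI 1 PFU/cell; 72 h 37C; OneGlo luminescence after 5 min RT; norm. to buffer vs Salinomycin 10uM.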"}
{"smiles": "CCc1ccc(-n2c(C)nc3cc(C(=O)NCc4cccnc4)ccc32)cc1", "activity change, negative = inhibition": "inconclusive: -46.5%"}
{"smiles": "CCc1ccc(NC(=O)CSC2=Nc3ccccc3C3=NC(CCC(=O)NCc4cccs4)C(=O)N23)cc1", "note": "(centres undefined)", "activity change, negative = inhibition": "inconclusive: -42.1%"}
{"smiles": "CCCc1nn2c(=O)cc(COC(=O)c3ccc(NC(=O)c4cccs4)cc3)nc2s1", "activity change, negative = inhibition": "active: -96.5%"}
{"smiles": "Cc1ccc2[nH]c(=O)c(CN(C)S(=O)(=O)c3cccc4nonc34)cc2c1", "activity change, negative = inhibition": "inconclusive: -52%"}
{"smiles": "CCSc1nnc(NC(=O)C(C)(C(F)(F)F)C(F)(F)F)s1", "activity change, negative = inhibition": "active: -65.9%"}
{"smiles": "Cn1c(=O)c2c(-c3ccccc3)n(-c3ccc(N)cc3)cc2n(C)c1=O", "activity change, negative = inhibition": "inactive: -13%"}
{"smiles": "CCC(=O)NC(=S)Nc1ccc(NC(=O)c2cccc([N+](=O)[O-])c2C)cc1", "activity change, negative = inhibition": "inconclusive: -48.1%"}
{"smiles": "COc1cccc(N2CCN(S(=O)(=O)c3ccc(-c4cnc(C5CC5)o4)cc3)CC2)c1", "activity change, negative = inhibition": "inconclusive: -43.1%"}
{"smiles": "CSCCC(NC(=O)c1ccccc1Br)C(=O)N1CCCC(C(F)(F)F)C1", "note": "(centres undefined)", "activity change, negative = inhibition": "inactive: 8.2%"}
{"smiles": "CCOC(=O)[C@H]1[C@H]2COc3ccc(Br)cc3[C@@H]2N2C(=O)CN(Cc3ccc(C)cc3)C(=O)[C@@]12C", "activity change, negative = inhibition": "inactive: -14.4%"}
{"smiles": "c1coc(CNc2c3c(nc4ncnn24)CCCC3)c1", "activity change, negative = inhibition": "inactive: 10.8%"}
{"smiles": "Cc1csc(NC(=O)c2cnc3ccccc3n2)n1", "activity change, negative = inhibition": "inactive: -29.5%"}
{"smiles": "COc1ccc(NC(=O)c2c(C)oc3ccc(O)c(CN4CCN(C)CC4)c23)cc1Cl", "activity change, negative = inhibition": "inactive: -15.6%"}
{"smiles": "[O-][n+]1ccc(CC(O)(C(F)(F)F)C(F)(F)F)cc1", "activity change, negative = inhibition": "inactive: -3.87%"}
{"smiles": "O=C(Nc1c(C(=O)N2CCN(c3ccc(F)cc3)CC2)oc2ccccc12)c1ccco1", "activity change, negative = inhibition": "inconclusive: -56.6%"}
{"smiles": "CN(CC(=O)Nc1cccc(F)c1)C(=O)c1cn(-c2ccccc2)nc1-c1ccc(Cl)cc1", "activity change, negative = inhibition": "inconclusive: -43.7%"}
{"smiles": "Nc1nn2c(-c3ccccc3)cc(=O)[nH]c2c1N=Nc1ccc(O)cc1", "activity change, negative = inhibition": "inactive: -30.8%"}
{"smiles": "Cn1c(=O)n(CCN2CCOCC2)c(=O)c2c1nc1n2CCN1c1ccc(Oc2ccccc2)cc1", "activity change, negative = inhibition": "inconclusive: -49.2%"}
{"smiles": "CCc1ccc(Nc2nc(-c3cc4cccc(OC)c4oc3=O)c(CC)s2)cc1", "activity change, negative = inhibition": "inconclusive: -41.8%"}
{"smiles": "CC(=O)c1c(-c2ccc(Cl)cc2)c2ccccc2[nH]c1=O", "activity change, negative = inhibition": "inconclusive: -51.7%"}
{"smiles": "CCN1C(=O)N(CC)C(O)(c2ccccc2)C1(O)c1ccccc1", "note": "(centres undefined)", "activity change, negative = inhibition": "active: -61.9%"}
{"smiles": "CCC1CCCCN1C(=O)CCS(=O)(=O)c1ccc2c(c1)CCN2C(C)=O", "note": "(centres undefined)", "activity change, negative = inhibition": "inconclusive: -41.4%"}
{"smiles": "CCOc1cc(N2CCOCC2)c(OCC)cc1NC(=O)c1ccc(S(C)(=O)=O)cc1", "activity change, negative = inhibition": "inconclusive: -54.7%"}
{"smiles": "C=CCn1c(COc2ccc(OC)cc2)nc2ccccc21", "activity change, negative = inhibition": "inactive: 19.6%"}
{"smiles": "Cc1nc([N+](=O)[O-])c(Br)n1CC(=O)c1ccc(Br)cc1", "activity change, negative = inhibition": "inactive: -16%"}
{"smiles": "CCC(=O)N1CCc2cc(Br)cc(S(=O)(=O)NCCc3ccc(C)cc3)c21", "activity change, negative = inhibition": "inconclusive: -43%"}
{"smiles": "CC(C)=N/N=C1/NC(=O)C(c2ccccc2)S1", "note": "(centres undefined)", "activity change, negative = inhibition": "inconclusive: -48.5%"}
{"smiles": "Cc1ccccc1NC(=O)CCS(=O)(=O)c1cccc2nonc12", "activity change, negative = inhibition": "inactive: 22.8%"}
{"smiles": "CCOC(=O)Cn1c(=O)oc2cc(S(=O)(=O)N3CCc4ccccc43)ccc21", "activity change, negative = inhibition": "inconclusive: -51.3%"}
{"smiles": "N#Cc1ccc(N/N=C/c2cn(-c3ccccc3)nc2-c2ccccc2)c([N+](=O)[O-])c1", "activity change, negative = inhibition": "inactive: 38.8%"}
{"smiles": "NS(=O)(=O)c1cccc(NC(=O)CSc2ncc(C(F)(F)F)cc2Cl)c1", "activity change, negative = inhibition": "inconclusive: -55.4%"}
{"smiles": "CCOc1ccccc1C(=O)N[C@H](C(=O)NCc1ccccc1)C(C)C", "activity change, negative = inhibition": "inconclusive: -45.6%"}
{"smiles": "CN1C(C)(C)CC(=NO)CC1(C)C", "activity change, negative = inhibition": "inconclusive: -54.4%"}
{"smiles": "COc1ccc(N(C(C)C(=O)N2CCCC2)S(C)(=O)=O)cc1", "note": "(centres undefined)", "activity change, negative = inhibition": "inactive: -1.25%"}
{"smiles": "COc1ccc(N2C(=O)[C@H]3[C@@H](C2=O)C2c4ccccc4C=NN2[C@H]3C(=O)C(C)(C)C)cc1", "note": "(some centres undefined)", "activity change, negative = inhibition": "inconclusive: -57.1%"}
{"smiles": "CC1CCN(Cc2c(C(=O)N/N=C/c3cc(Br)ccc3O)nnn2-c2nonc2N)CC1", "activity change, negative = inhibition": "active: -102%"}
{"smiles": "C/C(=N/NC(=O)CNC(=O)C1COc2ccccc2O1)c1ccc2c(c1)OCCO2", "note": "(centres undefined)", "activity change, negative = inhibition": "active: -73.2%"}
{"smiles": "COc1ccc(/C=C\\C(=O)c2c(O)ccc3c(C)cc(=O)oc23)cc1", "activity change, negative = inhibition": "inconclusive: -57.6%"}
{"smiles": "O=C(COC(=O)c1ccc(O)cc1O)Nc1cccc2ccccc12", "activity change, negative = inhibition": "inactive: -15.6%"}
{"smiles": "COc1ccc(-c2nc3scc(CCNS(=O)(=O)c4cccs4)n3n2)cc1", "activity change, negative = inhibition": "inconclusive: -56.4%"}
{"smiles": "COc1ccc(CNC(=O)CCc2c(C)nn(-c3ccc(N4CCCC4)nn3)c2C)cc1", "activity change, negative = inhibition": "inconclusive: -50.1%"}
{"smiles": "CCCCn1c(N)c(N(CCOC)C(=O)CCCc2nc3ccccc3c(=O)[nH]2)c(=O)[nH]c1=O", "activity change, negative = inhibition": "inactive: 19.2%"}
{"smiles": "Cc1ccccc1OCC(=O)Nc1ccc2c(c1)n(C)c(=O)n2C", "activity change, negative = inhibition": "inconclusive: -47.8%"}
{"smiles": "CCOC(=O)CNC(=O)N1CCCC(C(=O)c2cc(C)c(OC)c(C)c2)C1", "note": "(centres undefined)", "activity change, negative = inhibition": "inactive: 29.1%"}
